Test results published in the supplement of paper PMC10849652.
This is one part of the list.

Protein sequences, listed by entry. Tags and fused reporters are not part of them. Lines headed by an entry give the natural chain unless they say otherwise; changes in a name come on top.
UniProt Q96FS4: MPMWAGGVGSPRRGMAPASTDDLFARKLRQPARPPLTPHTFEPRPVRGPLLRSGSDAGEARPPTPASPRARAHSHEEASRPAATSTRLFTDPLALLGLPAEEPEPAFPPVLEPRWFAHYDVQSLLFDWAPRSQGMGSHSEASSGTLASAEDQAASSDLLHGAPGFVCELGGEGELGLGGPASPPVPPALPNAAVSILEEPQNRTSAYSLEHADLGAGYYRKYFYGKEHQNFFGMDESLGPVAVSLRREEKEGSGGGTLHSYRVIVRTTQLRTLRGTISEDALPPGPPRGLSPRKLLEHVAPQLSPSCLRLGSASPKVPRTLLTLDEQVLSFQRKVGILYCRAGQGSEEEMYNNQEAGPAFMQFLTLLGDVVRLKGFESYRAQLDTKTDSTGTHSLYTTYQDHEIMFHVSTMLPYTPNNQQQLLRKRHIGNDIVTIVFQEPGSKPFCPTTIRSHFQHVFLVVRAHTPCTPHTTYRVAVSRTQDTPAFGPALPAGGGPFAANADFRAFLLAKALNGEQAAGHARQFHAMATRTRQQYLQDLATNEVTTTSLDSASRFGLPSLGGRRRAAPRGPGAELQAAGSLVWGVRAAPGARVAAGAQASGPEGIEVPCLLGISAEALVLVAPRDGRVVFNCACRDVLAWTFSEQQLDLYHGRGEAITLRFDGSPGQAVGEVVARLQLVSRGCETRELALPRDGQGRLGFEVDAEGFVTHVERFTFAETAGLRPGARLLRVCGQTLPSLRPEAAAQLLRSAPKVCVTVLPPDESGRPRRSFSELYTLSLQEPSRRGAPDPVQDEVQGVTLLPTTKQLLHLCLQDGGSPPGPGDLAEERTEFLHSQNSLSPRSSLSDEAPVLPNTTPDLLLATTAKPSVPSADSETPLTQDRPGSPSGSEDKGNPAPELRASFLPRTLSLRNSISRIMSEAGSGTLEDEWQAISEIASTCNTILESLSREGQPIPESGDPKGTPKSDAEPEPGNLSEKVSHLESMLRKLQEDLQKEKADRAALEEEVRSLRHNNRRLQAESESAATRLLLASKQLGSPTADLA
UniProt Q9NXA8: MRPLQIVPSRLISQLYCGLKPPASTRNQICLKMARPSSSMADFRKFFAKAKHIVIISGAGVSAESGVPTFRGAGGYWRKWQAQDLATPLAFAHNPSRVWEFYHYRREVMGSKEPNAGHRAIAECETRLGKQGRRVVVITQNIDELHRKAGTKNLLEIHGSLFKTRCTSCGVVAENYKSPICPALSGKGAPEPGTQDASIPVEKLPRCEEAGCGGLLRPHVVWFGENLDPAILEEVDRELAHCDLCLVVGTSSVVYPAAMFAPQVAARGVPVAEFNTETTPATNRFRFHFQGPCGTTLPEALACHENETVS
UniProt Q12874: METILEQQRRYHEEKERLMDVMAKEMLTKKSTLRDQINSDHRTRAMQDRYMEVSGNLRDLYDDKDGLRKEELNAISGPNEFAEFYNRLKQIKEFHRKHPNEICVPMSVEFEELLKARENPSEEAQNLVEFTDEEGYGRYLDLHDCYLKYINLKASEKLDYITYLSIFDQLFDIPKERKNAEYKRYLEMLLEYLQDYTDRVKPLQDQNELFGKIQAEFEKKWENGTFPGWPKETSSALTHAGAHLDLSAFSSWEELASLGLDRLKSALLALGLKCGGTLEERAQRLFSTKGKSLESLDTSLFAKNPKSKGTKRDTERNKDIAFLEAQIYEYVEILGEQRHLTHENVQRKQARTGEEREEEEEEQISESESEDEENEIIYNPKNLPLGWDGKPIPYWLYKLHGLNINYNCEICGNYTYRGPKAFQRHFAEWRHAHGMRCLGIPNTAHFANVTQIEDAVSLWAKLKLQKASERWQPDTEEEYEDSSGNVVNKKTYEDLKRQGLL
UniProt Q96JX3: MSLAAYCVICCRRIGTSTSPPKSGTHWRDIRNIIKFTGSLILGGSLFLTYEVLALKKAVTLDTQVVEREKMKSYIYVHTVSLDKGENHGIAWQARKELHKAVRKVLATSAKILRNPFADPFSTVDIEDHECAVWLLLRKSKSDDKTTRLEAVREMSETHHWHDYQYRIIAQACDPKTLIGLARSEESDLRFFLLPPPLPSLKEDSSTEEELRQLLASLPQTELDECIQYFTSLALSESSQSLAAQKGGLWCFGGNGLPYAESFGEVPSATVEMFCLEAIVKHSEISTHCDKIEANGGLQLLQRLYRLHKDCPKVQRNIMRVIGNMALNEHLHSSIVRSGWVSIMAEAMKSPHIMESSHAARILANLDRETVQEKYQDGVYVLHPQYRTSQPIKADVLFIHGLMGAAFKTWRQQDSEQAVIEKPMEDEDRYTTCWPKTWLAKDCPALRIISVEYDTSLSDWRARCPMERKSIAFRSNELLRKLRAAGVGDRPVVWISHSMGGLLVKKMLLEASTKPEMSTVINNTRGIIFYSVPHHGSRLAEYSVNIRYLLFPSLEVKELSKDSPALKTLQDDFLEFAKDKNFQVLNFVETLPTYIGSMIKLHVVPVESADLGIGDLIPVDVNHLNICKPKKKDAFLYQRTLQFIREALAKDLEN
UniProt P08697: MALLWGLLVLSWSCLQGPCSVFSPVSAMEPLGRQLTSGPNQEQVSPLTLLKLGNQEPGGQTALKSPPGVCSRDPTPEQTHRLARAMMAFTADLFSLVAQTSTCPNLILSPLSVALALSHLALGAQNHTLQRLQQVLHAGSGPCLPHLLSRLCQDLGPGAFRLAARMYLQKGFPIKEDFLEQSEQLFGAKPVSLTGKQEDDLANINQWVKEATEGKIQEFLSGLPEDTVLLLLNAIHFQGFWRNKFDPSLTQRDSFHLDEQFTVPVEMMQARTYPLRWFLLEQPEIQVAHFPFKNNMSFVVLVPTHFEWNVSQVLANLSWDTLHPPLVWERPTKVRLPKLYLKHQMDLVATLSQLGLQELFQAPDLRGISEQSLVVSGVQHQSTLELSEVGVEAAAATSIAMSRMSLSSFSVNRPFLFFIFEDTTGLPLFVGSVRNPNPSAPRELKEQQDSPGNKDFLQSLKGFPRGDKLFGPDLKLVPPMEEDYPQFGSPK
UniProt Q8IX90, whole entry, looked up: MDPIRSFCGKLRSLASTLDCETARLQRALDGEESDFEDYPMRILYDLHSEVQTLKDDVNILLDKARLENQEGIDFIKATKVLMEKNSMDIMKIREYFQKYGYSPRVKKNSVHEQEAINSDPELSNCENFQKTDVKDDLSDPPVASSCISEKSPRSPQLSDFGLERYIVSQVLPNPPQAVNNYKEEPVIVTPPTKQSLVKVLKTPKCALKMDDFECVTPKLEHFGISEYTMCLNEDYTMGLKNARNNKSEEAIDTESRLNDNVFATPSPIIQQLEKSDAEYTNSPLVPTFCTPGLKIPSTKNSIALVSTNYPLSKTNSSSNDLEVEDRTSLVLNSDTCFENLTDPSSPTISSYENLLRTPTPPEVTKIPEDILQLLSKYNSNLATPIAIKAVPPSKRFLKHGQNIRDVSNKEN
UniProt Q8NEM2: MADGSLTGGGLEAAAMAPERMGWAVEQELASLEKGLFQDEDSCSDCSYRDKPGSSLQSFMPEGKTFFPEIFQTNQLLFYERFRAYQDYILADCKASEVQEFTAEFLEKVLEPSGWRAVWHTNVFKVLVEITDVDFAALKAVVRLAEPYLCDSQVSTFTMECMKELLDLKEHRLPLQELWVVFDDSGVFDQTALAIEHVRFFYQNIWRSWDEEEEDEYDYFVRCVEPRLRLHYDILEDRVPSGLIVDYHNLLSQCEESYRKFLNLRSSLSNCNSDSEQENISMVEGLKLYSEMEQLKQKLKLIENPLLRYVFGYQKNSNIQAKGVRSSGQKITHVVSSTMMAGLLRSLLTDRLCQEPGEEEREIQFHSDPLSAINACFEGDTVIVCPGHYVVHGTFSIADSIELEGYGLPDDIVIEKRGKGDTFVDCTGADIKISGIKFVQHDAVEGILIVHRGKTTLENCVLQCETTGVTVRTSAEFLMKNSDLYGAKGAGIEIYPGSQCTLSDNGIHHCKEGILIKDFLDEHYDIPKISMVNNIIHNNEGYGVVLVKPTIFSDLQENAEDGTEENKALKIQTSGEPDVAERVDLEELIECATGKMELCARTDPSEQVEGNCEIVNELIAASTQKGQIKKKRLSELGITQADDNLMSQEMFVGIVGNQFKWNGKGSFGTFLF
UniProt Q12872: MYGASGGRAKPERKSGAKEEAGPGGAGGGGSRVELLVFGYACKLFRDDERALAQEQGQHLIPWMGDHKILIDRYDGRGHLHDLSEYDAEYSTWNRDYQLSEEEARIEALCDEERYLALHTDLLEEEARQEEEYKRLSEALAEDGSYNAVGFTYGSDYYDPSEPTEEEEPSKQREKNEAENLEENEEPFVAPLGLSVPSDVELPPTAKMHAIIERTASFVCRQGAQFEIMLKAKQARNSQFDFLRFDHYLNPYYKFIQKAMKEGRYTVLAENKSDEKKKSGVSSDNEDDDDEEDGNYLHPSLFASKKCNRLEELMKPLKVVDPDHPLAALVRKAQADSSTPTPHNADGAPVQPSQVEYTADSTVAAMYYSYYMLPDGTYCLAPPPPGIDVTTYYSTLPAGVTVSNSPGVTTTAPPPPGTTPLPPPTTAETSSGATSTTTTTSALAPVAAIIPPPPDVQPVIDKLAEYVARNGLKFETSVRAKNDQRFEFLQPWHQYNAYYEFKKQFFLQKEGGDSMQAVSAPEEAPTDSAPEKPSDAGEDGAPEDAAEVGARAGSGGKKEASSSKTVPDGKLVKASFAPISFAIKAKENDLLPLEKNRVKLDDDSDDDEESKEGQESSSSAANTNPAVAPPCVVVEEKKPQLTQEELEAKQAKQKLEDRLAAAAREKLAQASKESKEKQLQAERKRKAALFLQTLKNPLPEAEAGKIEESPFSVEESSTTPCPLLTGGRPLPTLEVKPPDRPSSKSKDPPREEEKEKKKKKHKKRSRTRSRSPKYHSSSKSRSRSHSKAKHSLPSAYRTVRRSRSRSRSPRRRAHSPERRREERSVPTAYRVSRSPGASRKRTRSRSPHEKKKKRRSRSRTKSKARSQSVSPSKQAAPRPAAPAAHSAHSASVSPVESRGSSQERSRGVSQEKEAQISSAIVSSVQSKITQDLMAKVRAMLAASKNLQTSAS
UniProt Q6PI26: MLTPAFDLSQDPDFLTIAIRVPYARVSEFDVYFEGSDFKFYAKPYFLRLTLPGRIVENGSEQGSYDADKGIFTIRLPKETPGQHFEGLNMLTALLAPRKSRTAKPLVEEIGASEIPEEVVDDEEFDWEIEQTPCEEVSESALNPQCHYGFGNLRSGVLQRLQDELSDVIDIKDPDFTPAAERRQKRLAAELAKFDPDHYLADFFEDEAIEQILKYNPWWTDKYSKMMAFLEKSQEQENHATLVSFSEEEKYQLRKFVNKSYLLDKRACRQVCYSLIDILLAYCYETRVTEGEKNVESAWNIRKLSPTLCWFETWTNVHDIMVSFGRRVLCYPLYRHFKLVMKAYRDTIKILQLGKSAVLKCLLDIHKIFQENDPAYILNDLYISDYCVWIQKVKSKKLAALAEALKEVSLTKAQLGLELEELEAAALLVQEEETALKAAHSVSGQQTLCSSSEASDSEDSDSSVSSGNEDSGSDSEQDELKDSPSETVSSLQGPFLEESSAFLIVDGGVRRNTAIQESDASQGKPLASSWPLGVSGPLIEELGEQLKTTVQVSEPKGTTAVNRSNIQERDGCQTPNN
UniProt Q9UGK8: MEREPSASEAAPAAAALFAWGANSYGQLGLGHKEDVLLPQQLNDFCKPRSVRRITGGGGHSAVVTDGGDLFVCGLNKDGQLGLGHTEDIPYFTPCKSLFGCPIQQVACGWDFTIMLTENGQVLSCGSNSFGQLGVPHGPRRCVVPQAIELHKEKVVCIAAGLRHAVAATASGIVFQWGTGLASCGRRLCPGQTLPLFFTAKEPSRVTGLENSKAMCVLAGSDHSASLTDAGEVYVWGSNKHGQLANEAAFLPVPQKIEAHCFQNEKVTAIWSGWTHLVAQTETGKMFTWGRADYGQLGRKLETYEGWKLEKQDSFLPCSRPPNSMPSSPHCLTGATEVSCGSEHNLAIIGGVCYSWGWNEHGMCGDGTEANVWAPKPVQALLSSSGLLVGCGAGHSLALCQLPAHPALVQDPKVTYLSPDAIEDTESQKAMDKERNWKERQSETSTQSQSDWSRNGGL
UniProt P36952: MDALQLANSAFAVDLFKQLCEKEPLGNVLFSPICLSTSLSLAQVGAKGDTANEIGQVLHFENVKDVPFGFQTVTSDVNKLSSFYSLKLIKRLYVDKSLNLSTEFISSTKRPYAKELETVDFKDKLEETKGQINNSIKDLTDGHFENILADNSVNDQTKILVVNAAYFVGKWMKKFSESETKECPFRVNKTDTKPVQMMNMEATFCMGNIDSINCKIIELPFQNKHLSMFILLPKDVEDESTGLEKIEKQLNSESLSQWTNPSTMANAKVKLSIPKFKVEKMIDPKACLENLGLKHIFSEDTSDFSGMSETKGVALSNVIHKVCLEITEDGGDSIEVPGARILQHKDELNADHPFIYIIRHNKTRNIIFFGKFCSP

Tests used:
Assay in all cases: log2 fold change, soluble protein after heating vs DMSO (PISA); higher = thermal stabilisation; K562 lysate, 10 uM; active = over 0.2 and 3.5 SD of the protein, either way, in both replicates (recomputed)
[1] = compound: C1=CC=C(C=C1)[C@H](COC2=CC3=C(C=C2)NC(=O)N3)NC(=O)C4=CC=CN(C4=O)CC5=CC(=C(C=C5)F)F
Summary of the method: (§1)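 K562 pellets were dounce-homogenised in PBS pH 7.4 with 1 mM MgCl2, and the crude extract at 1 mg/mL protein was treated with 10 μM compound for 30 min. Aliquots were heated for 3 min across 48°C-58°C, pooled, and brought to 0.5% NP-40 at 4°C; soluble protein was the supernatant after 21,000xg for 90 min. Soluble protein was quantified by TMTpro 16plex LC-MS/MS with channel sums equalised, and reported as log2 fold change in thermal stability against DMSO controls, with values from duplicates.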

[2] = compound: CC1=C(SC2=C1C(=N[C@H](C3=NN=C(N32)C)CC(=O)N)C4=CC=C(C=C4)Cl)C
Summary of the method: as §1

[3] = compound: CC1=C2C(=CC=C1)N=C(N(C2=O)C3=CC=CC=C3C)CN4C=NC5=C(N=CN=C54)N
Summary of the method: as §1

[4] = compound: Cc1sc2c(c1C)C(c1ccc(Cl)cc1)=N[C@@H](CC(=O)OC(C)(C)C)c1nnc(C)n1-2
Summary of the method: as §1

[5] = compound: c1ccc([C@@H]2C[C@H]2NC2CCNCC2)cc1
Summary of the method: as §1

Measured: log2 fold change

SIPA1 (UniProt Q96FS4)
inactive: [1] 0.029 | [2] 0.003 | [3] 0.066 | [4] 0.006 | [5] -0.005

SIRT5 (UniProt Q9NXA8)
inactive: [1] 0.006 | [2] 0.026 | [3] 0.082 | [4] 0.028 | [5] 0.043

SF3A3 (UniProt Q12874)
inactive: [1] -0.001 | [2] 0.031 | [3] -0.006 | [4] -0.01 | [5] 0.103

SERAC1 (UniProt Q96JX3)
inactive: [1] -0.122 | [2] 0.145 | [4] 0.11 | [5] 0.065

SFPQ (UniProt P23246)
inactive: [1] -0.03 | [2] 0.009 | [3] 0.024 | [4] -0.002 | [5] 0.014

SERPINF2 (UniProt P08697)
inactive: [1] 0.208 | [2] 0.02 | [3] -0.073 | [5] 0.057

SKA3 (UniProt Q8IX90)
inactive: [1] -0.008 | [2] -0.002 | [3] -0.009 | [4] -0.016 | [5] -0.02

SIPA1L1 (UniProt O43166)
inactive: [1] 0.135 | [2] -0.025 | [3] -0.013 | [5] -0.038

SHCBP1 (UniProt Q8NEM2)
inactive: [1] 0.056 | [2] 0.012 | [3] -0.032 | [4] -0.022 | [5] -0.039

SETD1A (UniProt O15047)
inactive: [1] 0.017 | [2] -0.015 | [3] 0.034 | [4] -0.038 | [5] -0.036

SFT2D2 (UniProt O95562)
inactive: [1] -0.01 | [2] 0.058 | [3] -0.037 | [4] 0.065 | [5] -0.009

SLC1A4 (UniProt P43007)
inactive: [1] 0.03 | [2] -0.052 | [3] 0.01 | [4] -0.011 | [5] -0.051

SFSWAP isoform 2 (UniProt Q12872)
inactive: [1] 0.013 | [2] -0.068 | [3] 0.036 | [4] 0.002 | [5] 0.012

SH3GL1 (UniProt Q99961)
inactive: [1] 0.007 | [2] 0.016 | [3] 0.007 | [4] 0.012 | [5] 0.003

SIMC1 (UniProt Q8NDZ2)
inactive: [1] -0.29 | [2] 0.138 | [3] 0.014 | [5] -0.121

SETMAR (UniProt Q53H47)
inactive: [1] 0.035 | [2] 0.023 | [3] 0.025 | [4] -0.024 | [5] -0.014

Pulled one by one from the entries so far, 2 records:
SFSWAP isoform 2 (UniProt Q12872)
inactive: [1] 0.013 | [2] -0.068 | [3] 0.036 | [4] 0.002 | [5] 0.012

SETMAR (UniProt Q53H47)
inactive: [1] 0.035 | [2] 0.023 | [3] 0.025 | [4] -0.024 | [5] -0.014

Additional records.

SHQ1 (UniProt Q6PI26)
inactive: [1] 0.019 | [2] -0.146 | [4] -0.42 | [5] 0.115

SF3B3 (UniProt Q15393)
inactive: [1] -0.013 | [2] 0.001 | [3] 0.012 | [4] -0.003 | [5] 0

SERGEF (UniProt Q9UGK8)
inactive: [1] 0.091 | [2] 0.058 | [3] -0.146 | [4] -0.034 | [5] 0.029

SH3BP5L (UniProt Q7L8J4)
inactive: [1] 0.015 | [2] 0.015 | [3] 0.047 | [4] 0.01 | [5] -0.024

SERPINB5 (UniProt P36952)
inactive: [1] -0.14 | [2] -0.037 | [4] -0.129 | [5] -0.029

SFR1 isoform 2 (UniProt Q86XK3)
inactive: [1] -0.035 | [2] -0.005 | [3] -0.01 | [4] 0 | [5] 0.072
